Measured values published in the supplement of paper PMC8728848.
The list shows a part of the results.

What was measured:
Experiment in all cases: glycan array binding signal (z-score within array); higher = stronger binding
Conditions in all cases: glycan notation: IUPAC condensed, linker removed
[1] = biological target: Fuc(a1-3)GlcNAc
In short: (§1)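 The Consortium for Functional Glycomics database supplied 3228 glycan arrays, of which those lacking an available protein sequence were dropped. The binding signal, a within-array Z-score, was averaged across arrays of the same protein sequence and across linkers. Negative scores can be read as non-binding.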

[2] = biological target: Fuc(a1-3)[Gal(b1-4)]Glc6S
In short: as §1

[3] = biological target: Fuc(a1-3)[Gal(b1-4)]GlcNAc
In short: as §1

[4] = biological target: Fuc(a1-3)[Gal(b1-4)]GlcNAc(b1-2)Man
In short: as §1

[5] = biological target: Fuc(a1-3)[Gal(b1-4)]GlcNAc(b1-2)Man(a1-3)[Fuc(a1-3)[Gal(b1-4)]GlcNAc(b1-2)Man(a1-6)]Man(b1-4)GlcNAc(b1-4)GlcNAc
In short: as §1

[6] = biological target: Fuc(a1-3)[Gal(b1-4)]GlcNAc(b1-2)Man(a1-3)[Fuc(a1-3)[Gal(b1-4)]GlcNAc(b1-2)Man(a1-6)]Man(b1-4)GlcNAc(b1-4)[Fuc(a1-6)]GlcNAc
In short: as §1

[7] = biological target: Fuc(a1-3)[Gal(b1-4)]GlcNAc(b1-3)Gal(b1-3)[Fuc(a1-4)]GlcNAc
In short: as §1

[8] = biological target: Fuc(a1-3)[Gal(b1-4)]GlcNAc(b1-3)Gal(b1-4)[Fuc(a1-3)]GlcNAc
In short: as §1

[9] = biological target: Fuc(a1-3)[Gal(b1-4)]GlcNAc(b1-3)Gal(b1-4)[Fuc(a1-3)]GlcNAc(b1-3)Gal(b1-4)[Fuc(a1-3)]GlcNAc
In short: as §1

[10] = biological target: Fuc(a1-3)[Gal(b1-4)]GlcNAc(b1-3)GalNAc
In short: as §1

[11] = biological target: Fuc(a1-3)[Gal(b1-4)]GlcNAc(b1-6)GalNAc
In short: as §1

[12] = biological target: Fuc(a1-3)[Gal(b1-4)]GlcNAc(b1-6)[Gal(b1-3)GlcNAc(b1-3)]Gal(b1-4)Glc
In short: as §1

[13] = biological target: Fuc(a1-3)[Gal(b1-4)]GlcNAc6S
In short: as §1

[14] = biological target: Fuc(a1-3)[Gal3S(b1-4)]Glc
In short: as §1

[15] = biological target: Fuc(a1-3)[Gal3S(b1-4)]GlcNAc
In short: as §1

[16] = biological target: Fuc(a1-3)[Gal3S(b1-4)]GlcNAc6S
In short: as §1

[17] = biological target: Fuc(a1-3)[GalNAc(b1-4)]GlcNAc
In short: as §1

[18] = biological target: Fuc(a1-3)[GalNAc(b1-4)]GlcNAc6S
In short: as §1

[19] = biological target: Fuc(a1-4)GlcNAc
In short: as §1

[20] = biological target: Fuc(b1-3)GlcNAc
In short: as §1

[21] = biological target: Gal(a1-2)Gal
In short: as §1

[22] = biological target: Gal(a1-3)Gal
In short: as §1

[23] = biological target: Gal(a1-3)Gal(b1-3)GlcNAc
In short: as §1

[24] = biological target: Gal(a1-3)Gal(b1-3)GlcNAc(b1-2)Man
In short: as §1

[25] = biological target: Gal(a1-3)Gal(b1-3)GlcNAc(b1-2)Man(a1-3)[Gal(a1-3)Gal(b1-3)GlcNAc(b1-2)Man(a1-6)]Man(b1-4)GlcNAc(b1-4)GlcNAc
In short: as §1

[26] = biological target: Gal(a1-3)Gal(b1-3)GlcNAc(b1-3)GalNAc
In short: as §1

[27] = biological target: Gal(a1-3)Gal(b1-3)GlcNAc(b1-6)GalNAc
In short: as §1

[28] = biological target: Gal(a1-3)Gal(b1-3)[Fuc(a1-4)]GlcNAc(b1-2)Man(a1-3)[Gal(a1-3)Gal(b1-3)[Fuc(a1-4)]GlcNAc(b1-2)Man(a1-6)]Man(b1-4)GlcNAc(b1-4)GlcNAc
In short: as §1

[29] = biological target: Gal(a1-3)Gal(b1-4)Glc
In short: as §1

[30] = biological target: Gal(a1-3)Gal(b1-4)GlcNAc
In short: as §1

[31] = biological target: Gal(a1-3)Gal(b1-4)GlcNAc(b1-2)Man
In short: as §1

[32] = biological target: Gal(a1-3)Gal(b1-4)GlcNAc(b1-2)Man(a1-3)[Gal(a1-3)Gal(b1-4)GlcNAc(b1-2)Man(a1-6)]Man(b1-4)GlcNAc(b1-4)GlcNAc
In short: as §1

[33] = biological target: Gal(a1-3)Gal(b1-4)GlcNAc(b1-3)GalNAc
In short: as §1

[34] = biological target: Gal(a1-3)Gal(b1-4)GlcNAc(b1-6)GalNAc
In short: as §1

[35] = biological target: Gal(a1-3)Gal(b1-4)[Fuc(a1-3)]GlcNAc
In short: as §1

[36] = biological target: Gal(a1-3)Gal(b1-4)[Fuc(a1-3)]GlcNAc(b1-2)Man(a1-3)[Gal(a1-3)Gal(b1-4)[Fuc(a1-3)]GlcNAc(b1-2)Man(a1-6)]Man(b1-4)GlcNAc(b1-4)GlcNAc
In short: as §1

[37] = biological target: Gal(a1-3)GalNAc
In short: as §1

[38] = biological target: Gal(a1-3)[Gal(a1-4)]Gal(b1-4)GlcNAc
In short: as §1

[39] = biological target: Gal(a1-4)Gal(b1-3)GlcNAc(b1-2)Man(a1-3)[Gal(a1-4)Gal(b1-3)GlcNAc(b1-2)Man(a1-6)]Man(b1-4)GlcNAc(b1-4)GlcNAc
In short: as §1

[40] = biological target: Gal(a1-4)Gal(b1-4)Glc
In short: as §1

[41] = biological target: Gal(a1-4)Gal(b1-4)GlcNAc
In short: as §1

[42] = biological target: Gal(a1-4)Gal(b1-4)GlcNAc(b1-2)Man(a1-3)[Gal(a1-4)Gal(b1-4)GlcNAc(b1-2)Man(a1-6)]Man(b1-4)GlcNAc(b1-4)GlcNAc
In short: as §1

[43] = biological target: Gal(a1-4)Gal(b1-4)GlcNAc(b1-3)Gal(b1-4)Glc
In short: as §1

[44] = biological target: Gal(a1-4)GlcNAc
In short: as §1

[45] = biological target: Gal(a1-6)Glc
In short: as §1

B1: Mermaid2 (Stilbonema majum) (protein)
chain: MGSSHHHHHHSSGLVPRGSHMAASGWLRSPQGTVVKLYRRSLSWSKADEFCKDVDGRLVVDRTADMHLFLIKNVLKEKKSRVWVGLRRTAPHSRTWIWSDGTRQNEDDLNTNLWLRDEPNDAAGEEECALFMYSPWEKAWGLNDYLCRGGCRSYQFICEKGIR
Q: Which “glycan array binding signal (z-score)” value [1] does the source give for B1 here?
A: Its value is -0.031.

Q: And the “glycan array binding signal (z-score)” value [2]?
A: The value was 1.56.

Q: And the “glycan array binding signal (z-score)” value [3]?
A: Its value is 0.157.

Q: What about the “glycan array binding signal (z-score)” value [4] of the same binder?
A: The value was -0.471.

Q: What about the “glycan array binding signal (z-score)” value [5] of the same binder?
A: The value was -0.485.

Q: What about the “glycan array binding signal (z-score)” value [6] of the same binder?
A: The value was -0.867.

Q: And the “glycan array binding signal (z-score)” value [7]?
A: The value was -0.144.

Q: What about the “glycan array binding signal (z-score)” value [8] of the same binder?
A: The value was 1.68.

Q: And the “glycan array binding signal (z-score)” value [9]?
A: Its value is -0.459.

Q: And the “glycan array binding signal (z-score)” value [10]?
A: The value was -0.024.

Q: And the “glycan array binding signal (z-score)” value [11]?
A: Its value is -0.123.

Q: What about the “glycan array binding signal (z-score)” value [12] of the same binder?
A: The value was -0.797.

Q: What about the “glycan array binding signal (z-score)” value [13] of the same binder?
A: The value was 1.8.

Q: What about the “glycan array binding signal (z-score)” value [14] of the same binder?
A: The value was -0.681.

Q: What about the “glycan array binding signal (z-score)” value [15] of the same binder?
A: The value was 0.273.

Q: What about the “glycan array binding signal (z-score)” value [16] of the same binder?
A: Its value is -0.19.

Q: And the “glycan array binding signal (z-score)” value [17]?
A: Its value is 0.87.

Q: And the “glycan array binding signal (z-score)” value [18]?
A: The value was -0.66.

Q: What about the “glycan array binding signal (z-score)” value [19] of the same binder?
A: The value was 1.95.

Q: What about the “glycan array binding signal (z-score)” value [20] of the same binder?
A: The value was -0.713.

Q: And the “glycan array binding signal (z-score)” value [21]?
A: Its value is 1.42.

Q: What about the “glycan array binding signal (z-score)” value [22] of the same binder?
A: Its value is -0.664.

Q: What about the “glycan array binding signal (z-score)” value [23] of the same binder?
A: The value was -0.531.

Q: And the “glycan array binding signal (z-score)” value [24]?
A: Its value is -0.306.

Q: What about the “glycan array binding signal (z-score)” value [25] of the same binder?
A: Its value is 0.095.

Q: And the “glycan array binding signal (z-score)” value [26]?
A: The value was 0.342.

Q: What about the “glycan array binding signal (z-score)” value [27] of the same binder?
A: Its value is 0.012.

Q: What about the “glycan array binding signal (z-score)” value [28] of the same binder?
A: Its value is 1.53.

Q: What about the “glycan array binding signal (z-score)” value [29] of the same binder?
A: The value was -0.239.

Q: And the “glycan array binding signal (z-score)” value [30]?
A: The value was -0.361.

Q: And the “glycan array binding signal (z-score)” value [31]?
A: Its value is -0.581.

Q: What about the “glycan array binding signal (z-score)” value [32] of the same binder?
A: The value was -0.676.

Q: And the “glycan array binding signal (z-score)” value [33]?
A: The value was 0.117.

Q: What about the “glycan array binding signal (z-score)” value [34] of the same binder?
A: The value was -0.566.

Q: What about the “glycan array binding signal (z-score)” value [35] of the same binder?
A: The value was -0.408.

Q: And the “glycan array binding signal (z-score)” value [36]?
A: Its value is 1.95.

Q: What about the “glycan array binding signal (z-score)” value [37] of the same binder?
A: The value was -0.634.

Q: And the “glycan array binding signal (z-score)” value [38]?
A: Its value is -0.18.

Q: What about the “glycan array binding signal (z-score)” value [39] of the same binder?
A: The value was -0.225.

Q: What about the “glycan array binding signal (z-score)” value [40] of the same binder?
A: Its value is -0.176.

Q: And the “glycan array binding signal (z-score)” value [41]?
A: Its value is 0.076.

Q: And the “glycan array binding signal (z-score)” value [42]?
A: Its value is 0.443.

Q: What about the “glycan array binding signal (z-score)” value [43] of the same binder?
A: The value was -0.363.

Q: What about the “glycan array binding signal (z-score)” value [44] of the same binder?
A: The value was 0.2.

Q: What about the “glycan array binding signal (z-score)” value [45] of the same binder?
A: The value was -0.797.
